Experimental data taken from publication PMC8861116.
These are yes or no findings as the source states them, for the method shown. In cells and extracts the contact can be indirect. Some results given as binding are weak or reduced against the parent protein; the word gives no strength.

The chains behind the UniProt entries cited, without tags or fusion partners. Where a name states a change or a piece, a line headed by the entry shows the natural chain unless it says otherwise.
UniProt O43684: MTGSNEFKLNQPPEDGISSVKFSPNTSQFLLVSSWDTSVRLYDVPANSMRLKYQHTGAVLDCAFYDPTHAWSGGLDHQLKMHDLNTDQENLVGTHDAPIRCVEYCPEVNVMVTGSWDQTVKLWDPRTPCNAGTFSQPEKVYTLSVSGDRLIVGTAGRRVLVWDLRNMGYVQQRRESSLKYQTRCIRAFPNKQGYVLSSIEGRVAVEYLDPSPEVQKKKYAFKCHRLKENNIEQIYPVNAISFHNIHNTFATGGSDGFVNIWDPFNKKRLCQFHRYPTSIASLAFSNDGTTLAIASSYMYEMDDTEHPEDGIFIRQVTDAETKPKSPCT
UniProt Q13315: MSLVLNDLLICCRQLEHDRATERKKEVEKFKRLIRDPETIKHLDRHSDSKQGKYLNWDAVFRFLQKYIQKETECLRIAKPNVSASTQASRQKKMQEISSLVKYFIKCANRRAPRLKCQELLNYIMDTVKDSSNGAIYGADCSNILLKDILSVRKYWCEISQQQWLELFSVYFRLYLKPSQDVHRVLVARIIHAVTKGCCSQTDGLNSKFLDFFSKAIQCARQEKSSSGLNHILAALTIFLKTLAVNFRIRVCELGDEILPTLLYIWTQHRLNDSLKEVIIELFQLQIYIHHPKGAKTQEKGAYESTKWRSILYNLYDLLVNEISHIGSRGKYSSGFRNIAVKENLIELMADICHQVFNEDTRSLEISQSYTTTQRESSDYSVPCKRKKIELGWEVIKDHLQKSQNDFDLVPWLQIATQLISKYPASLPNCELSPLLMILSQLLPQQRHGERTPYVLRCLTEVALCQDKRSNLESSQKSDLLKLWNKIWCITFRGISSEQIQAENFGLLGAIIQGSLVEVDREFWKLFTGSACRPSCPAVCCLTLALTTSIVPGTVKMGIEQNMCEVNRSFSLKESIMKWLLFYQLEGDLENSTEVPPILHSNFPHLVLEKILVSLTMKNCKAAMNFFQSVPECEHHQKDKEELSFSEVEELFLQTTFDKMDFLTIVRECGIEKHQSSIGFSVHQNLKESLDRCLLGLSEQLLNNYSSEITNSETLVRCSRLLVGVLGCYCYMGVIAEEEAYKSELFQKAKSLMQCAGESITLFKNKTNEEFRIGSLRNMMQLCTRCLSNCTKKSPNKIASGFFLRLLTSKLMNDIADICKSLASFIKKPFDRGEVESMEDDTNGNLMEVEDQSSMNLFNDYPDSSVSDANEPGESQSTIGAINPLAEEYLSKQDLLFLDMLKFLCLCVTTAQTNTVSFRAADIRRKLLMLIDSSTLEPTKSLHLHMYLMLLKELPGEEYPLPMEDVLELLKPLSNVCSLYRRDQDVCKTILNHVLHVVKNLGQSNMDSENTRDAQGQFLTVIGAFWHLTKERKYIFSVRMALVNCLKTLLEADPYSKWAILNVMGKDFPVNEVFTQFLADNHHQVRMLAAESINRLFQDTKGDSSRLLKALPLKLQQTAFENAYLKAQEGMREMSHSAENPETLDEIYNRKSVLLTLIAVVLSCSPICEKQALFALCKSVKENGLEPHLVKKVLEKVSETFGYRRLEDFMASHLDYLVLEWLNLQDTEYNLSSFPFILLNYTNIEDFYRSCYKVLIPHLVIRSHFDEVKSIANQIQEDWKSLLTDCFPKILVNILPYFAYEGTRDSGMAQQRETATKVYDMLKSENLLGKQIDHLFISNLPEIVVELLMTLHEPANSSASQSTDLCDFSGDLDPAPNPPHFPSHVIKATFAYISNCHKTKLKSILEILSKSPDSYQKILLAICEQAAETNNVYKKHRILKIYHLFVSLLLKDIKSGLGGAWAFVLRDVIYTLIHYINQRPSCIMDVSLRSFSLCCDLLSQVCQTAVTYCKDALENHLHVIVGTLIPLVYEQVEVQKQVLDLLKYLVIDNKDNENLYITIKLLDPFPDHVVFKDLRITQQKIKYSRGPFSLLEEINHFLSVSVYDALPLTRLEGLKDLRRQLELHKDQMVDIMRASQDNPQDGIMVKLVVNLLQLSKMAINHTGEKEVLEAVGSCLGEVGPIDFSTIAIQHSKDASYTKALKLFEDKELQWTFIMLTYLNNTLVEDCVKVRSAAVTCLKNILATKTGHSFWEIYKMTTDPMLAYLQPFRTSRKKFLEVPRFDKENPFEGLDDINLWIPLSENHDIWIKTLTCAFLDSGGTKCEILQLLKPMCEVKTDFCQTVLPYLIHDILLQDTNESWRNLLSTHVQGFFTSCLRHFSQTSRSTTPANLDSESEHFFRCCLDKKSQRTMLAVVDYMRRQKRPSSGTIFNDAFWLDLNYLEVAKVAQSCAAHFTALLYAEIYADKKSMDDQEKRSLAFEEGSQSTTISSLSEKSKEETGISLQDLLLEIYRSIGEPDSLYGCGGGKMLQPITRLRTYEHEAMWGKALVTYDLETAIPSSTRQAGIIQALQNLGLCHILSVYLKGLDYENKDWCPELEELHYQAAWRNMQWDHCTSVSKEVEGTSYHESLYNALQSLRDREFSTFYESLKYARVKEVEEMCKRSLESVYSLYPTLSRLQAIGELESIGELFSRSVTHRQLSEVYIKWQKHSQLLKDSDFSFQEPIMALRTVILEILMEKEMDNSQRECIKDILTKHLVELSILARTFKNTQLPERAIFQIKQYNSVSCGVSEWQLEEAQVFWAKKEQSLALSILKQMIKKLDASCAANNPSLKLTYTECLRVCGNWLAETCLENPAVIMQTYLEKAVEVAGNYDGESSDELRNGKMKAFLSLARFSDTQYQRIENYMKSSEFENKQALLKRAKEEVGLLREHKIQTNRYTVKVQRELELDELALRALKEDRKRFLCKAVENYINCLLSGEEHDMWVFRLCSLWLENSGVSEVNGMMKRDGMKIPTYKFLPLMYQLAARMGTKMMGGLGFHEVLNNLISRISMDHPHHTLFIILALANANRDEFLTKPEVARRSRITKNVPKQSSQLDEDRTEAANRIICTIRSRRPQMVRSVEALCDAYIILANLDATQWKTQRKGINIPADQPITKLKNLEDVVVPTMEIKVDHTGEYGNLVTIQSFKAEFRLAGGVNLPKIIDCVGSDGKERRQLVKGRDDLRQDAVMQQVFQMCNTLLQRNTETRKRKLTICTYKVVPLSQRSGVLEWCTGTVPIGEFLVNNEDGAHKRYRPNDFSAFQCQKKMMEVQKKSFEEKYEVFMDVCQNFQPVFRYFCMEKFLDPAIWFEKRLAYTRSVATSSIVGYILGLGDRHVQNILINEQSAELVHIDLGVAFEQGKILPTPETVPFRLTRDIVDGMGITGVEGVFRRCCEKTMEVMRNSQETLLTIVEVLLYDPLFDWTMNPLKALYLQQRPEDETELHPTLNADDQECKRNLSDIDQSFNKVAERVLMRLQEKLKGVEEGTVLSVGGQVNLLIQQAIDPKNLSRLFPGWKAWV
UniProt O43683: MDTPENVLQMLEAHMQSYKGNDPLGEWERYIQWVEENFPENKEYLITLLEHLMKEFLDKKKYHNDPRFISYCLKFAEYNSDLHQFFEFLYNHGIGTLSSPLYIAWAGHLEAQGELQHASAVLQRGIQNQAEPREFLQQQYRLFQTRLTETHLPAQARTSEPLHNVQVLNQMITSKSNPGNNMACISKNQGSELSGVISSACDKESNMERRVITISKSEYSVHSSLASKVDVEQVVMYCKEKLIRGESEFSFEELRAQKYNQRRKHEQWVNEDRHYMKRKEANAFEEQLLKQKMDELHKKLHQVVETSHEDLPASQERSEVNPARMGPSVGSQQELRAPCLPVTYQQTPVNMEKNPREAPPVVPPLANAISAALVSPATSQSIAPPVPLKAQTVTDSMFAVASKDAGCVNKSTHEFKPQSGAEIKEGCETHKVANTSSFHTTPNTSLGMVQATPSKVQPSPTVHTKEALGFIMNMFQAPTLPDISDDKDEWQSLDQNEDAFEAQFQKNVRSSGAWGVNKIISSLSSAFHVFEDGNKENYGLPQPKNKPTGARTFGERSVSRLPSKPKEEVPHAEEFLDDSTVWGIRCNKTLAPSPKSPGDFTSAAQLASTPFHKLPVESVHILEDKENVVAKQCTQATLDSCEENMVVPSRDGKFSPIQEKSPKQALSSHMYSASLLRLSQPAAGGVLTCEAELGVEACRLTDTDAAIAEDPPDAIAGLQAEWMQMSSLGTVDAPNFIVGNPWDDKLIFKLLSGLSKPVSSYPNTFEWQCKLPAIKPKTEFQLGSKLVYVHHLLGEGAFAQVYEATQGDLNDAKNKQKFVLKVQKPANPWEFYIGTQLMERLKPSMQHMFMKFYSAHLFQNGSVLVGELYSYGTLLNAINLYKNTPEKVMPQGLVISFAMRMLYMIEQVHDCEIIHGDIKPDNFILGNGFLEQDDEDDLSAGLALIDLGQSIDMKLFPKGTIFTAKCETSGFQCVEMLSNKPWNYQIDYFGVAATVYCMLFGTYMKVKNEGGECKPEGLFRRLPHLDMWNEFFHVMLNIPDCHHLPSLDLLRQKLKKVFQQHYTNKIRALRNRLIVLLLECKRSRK
UniProt P12956: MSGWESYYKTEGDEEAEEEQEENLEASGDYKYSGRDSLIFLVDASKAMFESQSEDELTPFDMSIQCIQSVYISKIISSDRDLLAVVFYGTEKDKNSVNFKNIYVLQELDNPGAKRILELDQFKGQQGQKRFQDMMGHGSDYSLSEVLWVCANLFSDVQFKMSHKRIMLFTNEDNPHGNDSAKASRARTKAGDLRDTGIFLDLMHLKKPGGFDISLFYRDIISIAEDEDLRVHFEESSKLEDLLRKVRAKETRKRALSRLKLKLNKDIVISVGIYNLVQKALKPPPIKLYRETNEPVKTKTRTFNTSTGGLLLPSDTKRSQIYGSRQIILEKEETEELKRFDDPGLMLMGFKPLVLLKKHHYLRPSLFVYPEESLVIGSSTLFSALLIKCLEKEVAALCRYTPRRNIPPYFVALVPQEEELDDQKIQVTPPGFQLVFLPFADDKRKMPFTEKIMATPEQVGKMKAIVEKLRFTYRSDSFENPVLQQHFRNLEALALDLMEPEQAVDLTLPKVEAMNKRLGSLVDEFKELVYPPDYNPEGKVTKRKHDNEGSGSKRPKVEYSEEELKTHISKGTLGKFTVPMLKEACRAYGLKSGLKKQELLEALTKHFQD
UniProt P13010: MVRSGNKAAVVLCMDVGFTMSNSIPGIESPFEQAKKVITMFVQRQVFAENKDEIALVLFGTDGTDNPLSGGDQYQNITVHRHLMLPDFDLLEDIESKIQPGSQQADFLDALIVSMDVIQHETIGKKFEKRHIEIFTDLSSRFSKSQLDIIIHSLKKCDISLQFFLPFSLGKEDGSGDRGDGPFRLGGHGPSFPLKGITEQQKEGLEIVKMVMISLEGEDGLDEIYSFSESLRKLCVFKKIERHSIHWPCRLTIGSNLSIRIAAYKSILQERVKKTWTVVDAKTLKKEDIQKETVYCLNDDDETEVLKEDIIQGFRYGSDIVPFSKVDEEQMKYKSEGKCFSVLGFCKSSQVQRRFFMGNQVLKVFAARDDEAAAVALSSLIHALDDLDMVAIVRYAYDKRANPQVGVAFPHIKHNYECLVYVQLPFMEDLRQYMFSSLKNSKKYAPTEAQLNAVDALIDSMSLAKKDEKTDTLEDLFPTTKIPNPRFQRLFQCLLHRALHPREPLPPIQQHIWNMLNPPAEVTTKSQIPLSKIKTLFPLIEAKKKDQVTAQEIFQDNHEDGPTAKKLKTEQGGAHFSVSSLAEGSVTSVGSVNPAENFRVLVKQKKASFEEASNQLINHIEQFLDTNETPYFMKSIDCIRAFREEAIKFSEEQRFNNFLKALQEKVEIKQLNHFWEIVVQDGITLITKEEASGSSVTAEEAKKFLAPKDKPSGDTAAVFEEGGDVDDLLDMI
UniProt O43670: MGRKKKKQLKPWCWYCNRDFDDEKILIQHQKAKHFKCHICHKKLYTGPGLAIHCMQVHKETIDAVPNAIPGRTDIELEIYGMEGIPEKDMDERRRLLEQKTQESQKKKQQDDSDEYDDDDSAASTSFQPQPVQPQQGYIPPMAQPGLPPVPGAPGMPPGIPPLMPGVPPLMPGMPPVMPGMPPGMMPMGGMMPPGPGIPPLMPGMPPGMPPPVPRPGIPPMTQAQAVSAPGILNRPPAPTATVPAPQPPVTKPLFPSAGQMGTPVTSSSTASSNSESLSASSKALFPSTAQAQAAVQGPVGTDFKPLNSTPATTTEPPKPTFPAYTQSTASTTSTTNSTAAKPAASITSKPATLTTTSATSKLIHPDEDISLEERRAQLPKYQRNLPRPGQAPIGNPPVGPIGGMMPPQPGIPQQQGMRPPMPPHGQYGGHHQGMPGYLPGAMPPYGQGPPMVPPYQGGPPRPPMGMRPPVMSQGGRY

Assays:
[1] = target: FLAG-Bub3 WT (UniProt O43684); assay: co-IP; anti-FLAG immunoprecipitation from lysates of HeLa cells transfected with FLAG-Bub3 WT or S135A, Western blot for the endogenous partner; cells untreated, DMSO, nocodazole or IR
[2] = target: FLAG-Bub3 S135A (UniProt O43684); assay: as above
[3] = target: ATM (endogenous) (human (endogenous in HeLa)) (UniProt Q13315); assay: co-IP; anti-ATM immunoprecipitation from lysates of HeLa cells (untransfected or transfected with FLAG-Bub3 WT or S135A), Western blot; cells DMSO, nocodazole, mock or IR (6 Gy)

| Substance | binding [1] | binding [2] | binding [3] |
| --- | --- | --- | --- |
| Bub1 (from UniProt O43683 1-1085) (enzyme) | binds | binds |  |
| Bub3 (endogenous) (from UniProt O43684 1-328) |  |  | binds |
| DNA-PKcs (from UniProt P78527 1-4128) (enzyme) | binds |  |  |
| FLAG-Bub3 S135A (from UniProt O43684 1-328) |  |  | binds |
| FLAG-Bub3 WT (from UniProt O43684 1-328) |  |  | binds |
| Ku70 (from UniProt P12956 1-609) | binds | binds |  |
| Ku80 (from UniProt P13010 1-732) | binds | binds |  |
| ZNF207 (endogenous) (from UniProt O43670 1-478) | binds | binds |  |
